# Reference: US9901592B2 (priority 2008, dated 2018)
# Read-outs that look alike come from different tables or passages of the source.
# Columns and labels:
# S. pneumoniae = assay type: cell-based; details: maximum 50 passages
# S. pyogenes = assay type: cell-based; details: maximum 50
# [1] = strain 1635 Macrolide-R [erm(A)]
# [2] = strain 2686 Macrolide-R [L4 mutation]
# [3] = strain 3009 Macrolide-R [23SrRNA mutation]
# [4] = strain 3665 Macrolide-R [mef(A)]
# [5] = strain 7127 Macrolide-S [S20N in L4, A105V in L22]
# [6] = strain 237 Macrolide-R [LA mutation]
# [7] = strain 2011 Macrolide-R [mef(A)]
# [8] = strain 2094 Macrolide-R [erm(A)]
SMILES,Selected Resistance # Pass (S. pneumoniae; strain 1077 Macrolide-S),Selected Resistance # Pass (S. pneumoniae; [1]),Selected Resistance # Pass (S. pneumoniae; [2]),Selected Resistance # Pass (S. pneumoniae; [3]),Selected Resistance # Pass (S. pneumoniae; [4]),Selected Resistance # Pass (S. pneumoniae; [5]),Selected Resistance (number of passages) (S. pyogenes; [6]),Selected Resistance (number of passages) (S. pyogenes; [7]),Selected Resistance (number of passages) (S. pyogenes; [8]),Selected Resistance (number of passages) (S. pyogenes; strain 2132 Macrolide-S),Selected Resistance # Pass (S. pneumoniae; strain 24 Macrolide-R [erm(B)]),Selected Resistance # Pass (S. pneumoniae; strain 1076 Macrolide-R [erm(B)&mef(A)]),Selected Resistance (number of passages) (S. pyogenes; strain 2368 Macrolide-R [erm(B)])
"CC[C@H]1OC(=O)[C@H](C)[C@@H](O[C@H]2C[C@@](C)(OC)[C@@H](O)[C@H](C)O2)[C@H](C)[C@@H](O[C@@H]2O[C@H](C)C[C@H](N(C)C)[C@H]2O)[C@](C)(OC)C[C@@H](C)C(=O)[C@H](C)[C@@H](O)[C@]1(C)O [CLR, clarithromycin]",50,49,14,25,26,15,50,50,6,50,,,
"CC[C@H]1OC(=O)[C@H](C)C(=O)[C@H](C)[C@@H](O[C@@H]2O[C@H](C)C[C@H](N(C)C)[C@H]2O)[C@](C)(OC)C[C@@H](C)C(=O)[C@H](C)[C@H]2N(CCCCn3cnc(-c4cccnc4)c3)C(=O)O[C@]12C [TEL, telithromycin]",15,50,25,50,14,38,50,50,22,50,14,14,6
